Numbering of substitutions follows the chain as printed. Results are given in words; binding and its absence hold for the method and conditions named. Some results given as binding are weak or reduced against the parent protein; the word gives no strength.
B1: EPOR/CD131 binder, HC SEQ ID NO 1697 / LC SEQ ID NO 1833 (antibody, V domains shown)
VH: EVQLVESGGGLVKPGGSLRLSCAASGFTFSRYSMNWVRQAPGKGLEWVSSIISSTSYIYYADSVKGRFTISRDNAKNSLYLQMNSLRAEDTAVYYCARETPVTLFDAFDIWGQGTMVTVSS
VL: QSVLTQPPSVSGAPGQRVTISCTGSSSNIGARYDVHWYQLLPGSAPKLLIYDNSDRPSGVPDRFSGSRSGTSASLAITGLQAEDEADYFCQSYDSSLSGSVFGGGTKLTVL
B2: EPOR/CD131 binder, HC SEQ ID NO 1698 / LC SEQ ID NO 1834 (antibody, V domains shown)
VH: EVHLVESGGGLVQPGRSLRLSCAASGFTFDEYAMHWVRQVPGKGLEWVSGISWNSGSIGYADSVKGRFTISRDNAKNSLYLQMNSLRAEDTALYYCAKDIFTGRAGYFDYWGQGTLVTVSS
VL: B1 VL with R32G, L40Q, S44T, D52G, D55N, R68K, F89Y, S100W
B3: EPOR/CD131 binder, HC SEQ ID NO 1710 / LC SEQ ID NO 1846 (antibody, V domains shown)
VH: EVQLVESGGGLVQPGGSLRLSCAASGFTFSSYSMNWVRQAPGKGLEWVSYISSSSSTIYYADSVKGRFTISRDNAKNSLYLQMNSLRDEDTAVYYCARTYYYGSGSYYTLDYWGQGTLVTVSS
VL: B1 VL with R32G, L40Q, S44T, D52G, D55N, R68K, F89Y, S100V
B4: EPOR/CD131 binder, HC SEQ ID NO 1683 / LC SEQ ID NO 1819 (antibody, V domains shown)
VH: EVHLVESGGGLVQPGGSLRLSCAASGFTFSGYWMSWVRQAPGKGLEWVANIKQDGSDKYYVDSVKGRFTISRDNAINSLFLQLTSLRAEDTAVYYCAREIDWNYGFHFDYWGQGTLITVSS
VL: SYELTQPPSVSVSPGQTARITCSGDALPQKYAFWYQQKSGQAPVLVIYEDSERPSGIPERFSGSTSGTMATLTISGAQVEDEADYYCFSTDSSGNKVFGGGTKLTVL
B5: EPOR/CD131 binder, HC SEQ ID NO 1684 / LC SEQ ID NO 1820 (antibody, V domains shown)
VH: QVQLVQSGAEVKKPGASVKVSCKASGYTFTSYDINWVRQATGQGLEWMGWMNPNSGNTGYAQKFQGRVTMTRNTSISTAYMELSSLRSEDTAVYYCARGYYDFWSGPFDYWGQGTLVTVSS
VL: B4 VL with Q29K, F33Y, E52K, T65S, F88Y, K96R
B6: EPOR/CD131 binder, HC SEQ ID NO 1671 / LC SEQ ID NO 1807 (antibody, V domains shown)
VH: QVQLVQSGAEVKKPGASVKVSCKASGYTFTTYGISWVRQAPGQGLEWMGWISAFNGNTNYAQNLQGRVTMTTDTSTSTAYMELRSLRSDDTAVYYCARENNWNYGWFDPWGQGTLVTVSS
VL: SSELTQDPAVSVALGQTVRITCQGDSLRSYYASWYQQKPGQAPVLVIYGKNNRPSGIPDRFSGSSSGNTASLTITGAQAEDEADYYCNSRDSSGNHYVFGTGTKVTVL
B7: EPOR/CD131 binder, HC SEQ ID NO 1693 / LC SEQ ID NO 1829 (antibody, V domains shown)
VH: EVQLVESGGGLVQPGGSLRLSCAASGFTFSSYWMHWVRQAPGKGLVWVSRVNSDGSNTTYADSVKGRFTISRDNAKNTLYLQMNSLRAEDTAVYYCARNRDYHGSGSFDYWGQGTLVTVSS
VL: B6 VL with K50Q, Y97W, T101G, V105L
B8: EPOR/CD131 binder, HC SEQ ID NO 1713 / LC SEQ ID NO 1849 (antibody, V domains shown)
VH: EVQLVESGGGLVQPGGSLRLSCAASGFTFSSYWMSWVRQAPGKGLEWVANIKQDGSEKYYVDSVKGRFTISRDNAKNSLYLQMNSLRAEDTAVYYCAREGVLWFGEFYYYMDVWGKGTTVTVSS
VL: B6 VL with S29R, Y97L, T101G, V105L
B9: EPOR/CD131 binder, HC SEQ ID NO 1686 / LC SEQ ID NO 1822 (antibody, V domains shown)
VH: QVQLQESGPGLVKPSETLSLTCTVSGGSISDYYWNWIRQPPGKGLEWIGYISSRGRTNYNPSLKSRVTLSVDSSKNQFSLKLTSVTAADTAVFYCARGRHFDWLLSYFDYWGQGTLVTVSS
VL: B6 VL
B10: EPOR/CD131 binder, HC SEQ ID NO 1694 / LC SEQ ID NO 1830 (antibody, V domains shown)
VH: QVQLQQSGPGLVKPSQTLSLTCAISGDNVSSNSAAWNWIRQSPSRGLEWLGRTYYRSKWYNDYAVSVKSRITINPDTSKNQFSLHLNSVTPEDTALYYCARDWNFAFDIWGQGTMVTVSS
VL: B6 VL with Y97L, T101G, V105L
B11: EPOR/CD131 binder, HC SEQ ID NO 1706 / LC SEQ ID NO 1842 (antibody, V domains shown)
VH: EVQLVESGGGLVKPGGSLRLSCAASGFTFSTYSMNWVRQAPGKGLEWVSSISSSSTYIYYADSVKGRFTISRDNAKNSLYLQMNSLRADDTAVYYCARDPPLSGSYAGEFDYWGQGTLVTVSS
VL: B6 VL with Y97W, T101G, V105L
B12: EPOR/CD131 binder, HC SEQ ID NO 1692 / LC SEQ ID NO 1828 (antibody, V domains shown)
VH: QVQLVQSGSEVKKPGASVKVSCKASGYTFTGYYMYWVRQAPGQGLEWMGWINPNSGGTNYAQKFQDRVTMTRDTSISTAYMELSRLRSDDTAIYYCARDLDYYGSGNYDYWGQGTLVTVSS
VL: B6 VL with G94D, Y97R, T101G, V105L
B13: EPOR/CD131 binder, HC SEQ ID NO 1688 / LC SEQ ID NO 1824 (antibody, V domains shown)
VH: EVQLVESGGGLVKPGGSLRLSCAASGFTFSSYSMNWVRQAPGKGLEWVSSISSSSSYIYYADSVKGRFTISRDNAKNSLYLQMNSLRAEDTAVYYCARDRYNWNYRYFDLWGRGTLVTVSS
VL: B6 VL with Y97L, T101G, V105L
B14: EPOR/CD131 binder, HC SEQ ID NO 1690 / LC SEQ ID NO 1826 (antibody, V domains shown)
VH: QVQLVQSGAEVKKPGASVKVSCKASGYTFTSYGISWVRQAPGQGLEWMGWISAYNGNTNYAQKLQGRVTMTTDTSTSTAYMELRSLRSDDTAVYYCARDGAARPPRYMDVWGKGTTVTVSS
VL: B6 VL with Y97L, T101G, V105L
B15: EPOR/CD131 binder, HC SEQ ID NO 1687 / LC SEQ ID NO 1823 (antibody, V domains shown)
VH: EVQLVESGGGLVKPGGSLRLSCAASGFTFSSDNMNWVRQAPGKGLEWVSSIGSSSSYIYYADSVKGRFTISRDNAKNSLYLQMNSLRAEDTAVYYCARDRAIVGATWFDPWGQGTLVIVSS
VL: B6 VL with S29N, V44I, G94Y, Y97W, T101G, V105L
B16: EPOR/CD131 binder, HC SEQ ID NO 1677 / LC SEQ ID NO 1813 (antibody, V domains shown)
VH: EVQLVESGGGLVKPGGSLRLSCAASGFTFSSYSMNWVRQAPGKGLEWVSSISSSSSYIYYADSVKGRFTISRDNAKNSLYLQMNSLRAEDTAVYYCAREGNWGPYYFDYWGQGTLVTVSS
VL: QSALTQPASVSGSPGQSITISCTGTSSDVGGYNYVSWYQQHPGKAPKLMIYDVSKRPSGVSNRFSGSKSGNTASLTISGLQAEDEADYYCCSYAGSSTVVFGGGTKLTVL
B17: EPOR/CD131 binder, HC SEQ ID NO 1716 / LC SEQ ID NO 1852 (antibody, V domains shown)
VH: QVHLVESGGGVVQPGRSLRLSCAASGFTFSSYGMHWVRQAPGKGLEWVAIIWYDGSNEYYADSVKGRFTISRDNSKNTLYLQMNTLRAEDTAVYYCAGAYYYDSSGYLNYMDVWGKGTTVTVSS
VL: SYVLIQPPSVSVAPGKTARITCGGNNIGGKSVHWYQLKPGQAPVLVICYNRDRPSGIPERFSGSNSGNTATLTISRVEAGDEADYYCQVWDSSSDHPVFGGGTKLTVL
B18: EPOR/CD131 binder, HC SEQ ID NO 1704 / LC SEQ ID NO 1840 (antibody, V domains shown)
VH: EVQLVESGGGLVQPGGSLRLSCAASGFTFSSYWMSWVRQAPGKGLEWVANIKQDGSEKYYVDSVKGRFTISRDNAKNSLYLQMNSLRAEDTAVYYCARDDTIFGVVTDAFDIWGQGTMVTVSS
VL: SSELTQDPAVSVALGQTVRITCQGDSLRSYYASWYQQKPGQAPVLVIYGKNNRPSGIPDRFSGSSSGNTASLTITGAQAEDEADYYCNSRDSSGNLFGGGTKLTVL
B19: EPOR/CD131 binder, HC SEQ ID NO 1702 / LC SEQ ID NO 1838 (antibody, V domains shown)
VH: QVQLVQSGAEVKKPGASVKVSCKASGYTFTSYDINWVRQATGQGLEWMGWMNPNSGNTGYAQKFQGRVTMTRNTSISTAYMELSSLRSEDTAVYYCVRRITVVRGVISLDYWGQGTLVTVSS
VL: SYELTQPPSVSVSPGQTAIITCSGAKLGDKYACWYQKKPGQSPVMVIYQDRKRPSGIPERFSGSNSGNTATLTISGTQAMDEADYYCQAWDSSTAVFGGGTKLTVL
B20: EPOR/CD131 binder, HC SEQ ID NO 1695 / LC SEQ ID NO 1831 (antibody, V domains shown)
VH: QVQLVQSGAEVKKPGASVKVSCKASGYTFTSYGITWVRQAPGQGLEWMGWISAYNGNTHYAQKLQGRVTMTTDTSTSTAYMDLRSLRSDDTAVYYCARTIFGVVNNWFDPWGQGTLVTVSS
VL: QSVLSQPPSVSEAPRQRVTISCSGSSSNIGYNAVNWYQQLPGKAPKLLISHDDLLPSGVSDRFSGSKSGTSASLAISGLQSDDEADYYCAAWDARLNGWVFGGGTKLTVL
B21: EPOR/CD131 binder, HC SEQ ID NO 1700 / LC SEQ ID NO 1836 (antibody, V domains shown)
VH: QITLKESGPTLVKPTQTLTLTCTFSGFSISTSGVGVGWIRQPPGKALEWLAFIFWNDDKRYSPSLKSRLTITKDTSKNQVVLTMTNMDPVDTATYYCTHTEYGSSWSVDYWGQGTLVTVSS
VL: QAVLTQPASLSASPGASASLTCTLRSGINVGTSRIYWYQQKPGSPPQYLLRYKSDSDKHQDSGVPSRFSGSKDASANAGILLISGLQSEDEADYYCMIWHSSAVVFGGGTKLTVL
B22: EPOR/CD131 binder, HC SEQ ID NO 1711 / LC SEQ ID NO 1847 (antibody, V domains shown)
VH: QVQLVQSGAEVKKPGASVKVSCKASGYTFTSYDINWVRQATGQGLEWMGWMNPNSGNTGYAQKFQGRVTMTRNTSISTAYMELSSLRSEDTAVYYCARGGITIFGVVTPFDYWGQGTLVTVSS
VL: B21 VL with S33Y, H59Q, D61G, V104W
B23: EPOR/CD131 binder, HC SEQ ID NO 1701 / LC SEQ ID NO 1837 (antibody, V domains shown)
VH: EVQLVESGGGVVRPGGSLRLSCAASGFTFDDYGMSWVRQAPGKGLEWVSGINWNGGSTGYADSVKGRFTISRDNAKNSLYLQMNSLRAEDTALYYCARHFDWLLSNAFDIWGQGTMVTVSS
VL: QAVLTQPASLSASPGASASLTCTLRSGINVGTYRIYWYQQKPGSPPQYLLRYKSDSDKQQGSGVPSRFSGSKDASANAGILLISGLQSEDEADYYCMIWHSSASVVFGGGTKLTVL

By UniProt entry, the sequences of proteins in these tests, tags left out. Residues count along the entry.
UniProt P32927, residues 17-443: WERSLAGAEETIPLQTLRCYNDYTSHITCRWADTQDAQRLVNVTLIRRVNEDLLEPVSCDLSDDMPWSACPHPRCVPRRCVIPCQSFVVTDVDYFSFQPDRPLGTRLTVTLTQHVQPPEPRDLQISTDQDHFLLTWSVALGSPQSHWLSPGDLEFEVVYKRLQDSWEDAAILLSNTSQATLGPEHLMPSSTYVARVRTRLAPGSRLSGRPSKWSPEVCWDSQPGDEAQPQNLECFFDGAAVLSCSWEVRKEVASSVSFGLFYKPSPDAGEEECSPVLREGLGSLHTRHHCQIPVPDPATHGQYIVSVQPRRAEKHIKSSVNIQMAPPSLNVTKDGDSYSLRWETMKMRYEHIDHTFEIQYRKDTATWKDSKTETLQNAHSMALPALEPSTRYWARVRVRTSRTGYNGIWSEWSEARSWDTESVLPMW

What follows are binders tested against hCD131-Fc (IME021) (human) (UniProt P32927) (assay: B cells sorted with labelled hEPOR-Fc and hCD131-Fc, then sequenced).

binding, binds:
B1
B2
B3
B4
B5
B6
B7
B8
B9
B10
B11
B12
B13
B14
B15
B16
B17
B18
B19
B20
B21
B22
B23

— US20250388687A1
